The values are deposited in ChEMBL (CHEMBL3988442, “University of Dundee, Small-Polar-MMV Screening Library” (2021)).

Results are given as percent effect. The record does not define 0% and 100%; most values in the screen are far below 50% and negative numbers occur (in some assays of this library far below -100). This is an unselected part of the compounds tested. Two or more numbers in one place are separate tests of the same structure; such repeats can differ widely.

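Viability assay of Plasmodium falciparum sporozoites; the read-out is not stated. The concentration is filed as 10 mM, unlikely as a test dose, so the dose is not known. Higher reads as lower viability (inferred: compounds with an IC50 in retests scored well above the rest). Strong results were mostly tested again. Of about 34,000 compounds tested this way, about 280 (0.84%) reached 50% or more in at least one test.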

Result for CC1CN(Cc2cccc(C#N)c2)CCN1c1ccc2nncn2n1 (centres unmarked) was -16.41% and -12.56%.
Result for O=c1cc(CN2CCCC2)nc2n1CCCN(CC1CC1)C2 was 6.076%.
Result for Fc1cc(F)cc(CN2CCC(c3cc4ncccc4cn3)CC2)c1 was -9.207% and -23.25% and -24.54%.
Result for CN(C)c1ccc(CNC(=O)c2ccc(Cl)cc2F)cc1 was -25.14%.
Result for CCN(C)c1ncnc2c1CCN(CC1CCOC1)CC2.O=C(O)C(F)(F)F (centres unmarked) was -1.476%.
Result for NS(=O)(=O)Cc1ccc(CNc2cncc(-n3cccn3)n2)cc1 was 5.217%.
Result for COCCCn1ccc(NS(=O)(=O)c2cc(C)c(F)cc2F)n1 was -3.724%.
Result for O=C(c1cccc(CNS(=O)(=O)c2ccccc2F)c1)N1CCCC1 was -27.75%.
Result for COc1ccc(CN2CCC3(CCCN(c4ncc(F)cn4)C3)C2)cc1.O=C(O)C(F)(F)F (centres unmarked) was -7.253%.
Result for O=C(c1cccnc1)N1CCOC(c2ccc(-c3cncnc3)cn2)C1 (centres unmarked) was 7.393%.
Result for COCCN1C(=O)CC(N2CCN(c3ccc(F)cc3)CC2)C1=O (centres unmarked) was 7.554%.
Result for CCC1CCCCN1Cc1ncc(C(C)(C)C)o1 (centres unmarked) was 5.791%.
Result for Cc1nc(CN(C)Cc2cc3c(cc2OC(F)F)OCO3)cs1 was -8.742% and -16.17%.
Result for [H][C@]12CCN(C(C)=O)[C@@]1([H])CC[C@H](COCc1csc(C)n1)O2 was 8.754%.
Result for N#CC1(NC(=O)CN2CCC(c3ccnn3CCO)CC2)CCCC1 was 8.906%.
Result for CSc1nsc(SCC(=O)c2cc3c(cc2Cl)NC(=O)C3)n1 was -0.4541%.
Result for CN(c1cccnn1)C1CCN(C(=O)Cc2c[nH]c3ccccc23)CC1 was 5.344%.
Result for COCC(=O)N1CCCCC1c1ccnc(Nc2ncc(C)s2)n1 (centres unmarked) was -11.26%.
Result for Cc1nc(CN2CCOCC3(CCN(c4cccnc4)CC3)C2)cs1.O=C(O)C(F)(F)F.O=C(O)C(F)(F)F was -4.284%.
Result for Cn1nccc1C(=O)N1Cc2ccccc2OC2(CCOCC2)C1 was -10.27%.
Result for COc1ccccc1CN1CC(OC)CN(C(=O)OCC(C)C)CC1=O (centres unmarked) was -3.541%.
Result for O=C(O)c1cn(CC2CCCN(c3cnc4ccccc4n3)C2)nn1 (centres unmarked) was -20.82% and -24.65%.
Result for COC(=O)c1cc(C(=O)N2CCC(C)CC2)n(-c2ccccc2)n1 was -0.0993%.
Result for Cc1noc(Cl)c1CC(=O)NCCOc1ccc(F)cc1F was 6.243%.
Result for Cc1ccc(Sc2ccc(N3CCC(C(=O)O)CC3)nn2)cc1 was 64.84% and 62.96%.
Result for CC(O)CN1CCN(C(=O)c2ccc(Cn3cccc3)cc2)CC1 (centres unmarked) was 8.32%.
Result for CC1CN(C(=O)C2(c3cccc(F)c3)CCOCC2)CCO1 (centres unmarked) was -9.112%.
Result for CCN1CCNC(=O)C12CCN(S(=O)(=O)c1ccc(F)cc1)CC2 was 5.988%.
Result for CC(C)c1nnc(NC(=O)c2cccc(OCC(F)(F)F)n2)[nH]1 was -14.8%.
Result for CCc1noc(CN2CCCN(C(C)=O)CC2)n1 was 6.342%.
Result for COCCC(=O)NCCc1nc2cc(-c3ccc(OC)cc3)ncn2n1 was 4.812%.
Result for Cc1nc(CN2CCC3(CCN(Cc4cnn(C)c4)CC3)C2=O)cs1.O=C(O)C(F)(F)F.O=C(O)C(F)(F)F was 21.08%.
Result for Cn1cc(C2COC3(CCN(C(=O)Cn4cccn4)CC3)C2)cn1 (centres unmarked) was -11.2%.
Result for Cc1ocnc1C(=O)N(C)[C@@H]1CC[C@@H](n2ccnc2C)[C@@H]1O was 2.346%.
Result for CC(C)c1nn(C)c(N(C)C)c1CNCc1ccc(CO)c(F)c1 was -0.9874%.

Some entries from above, unchanged:

{"structure": "COc1ccccc1CN1CC(OC)CN(C(=O)OCC(C)C)CC1=O", "stereo": "centres unmarked", "Percent Effect": -3.541}
{"structure": "O=C(O)c1cn(CC2CCCN(c3cnc4ccccc4n3)C2)nn1", "stereo": "centres unmarked", "Percent Effect": "-20.82 and -24.65"}
{"structure": "O=c1cc(CN2CCCC2)nc2n1CCCN(CC1CC1)C2", "Percent Effect": 6.076}
{"structure": "Cc1ccc(Sc2ccc(N3CCC(C(=O)O)CC3)nn2)cc1", "Percent Effect": "64.84 and 62.96"}
{"structure": "COCCC(=O)NCCc1nc2cc(-c3ccc(OC)cc3)ncn2n1", "Percent Effect": 4.812}